The values that follow come from PubChem BioAssay AID445 (National Center for Advancing Translational Sciences (NCATS), 2006).

Molecules are shown by their SMILES. The list shows a part of the results. Further columns of the screen follow, without active or inactive calls. The list favours compounds with an active or inconclusive main result. Potencies come from curve fits of mixed quality, noted in brackets.

The nature of the experiment: IkB Signaling. Particulars: ABC-DLBCL IkBa-CBG/CBR dual luciferase ratio (green luciferase fused to IkBa over red control in OCI-Ly3 lymphoma cells), 4 h. The essentials: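 Luminescence ratio of IκBα-fused green versus native red beetle luciferase in OCI-Ly3 cells, 4 h post-doxycycline with compound; red signal alone, scaled from basal (0%) to zero light (-100%), flagged nonspecific or cytotoxic effects.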
[1] abbreviates: measured here: IkB-luc green channel.
The mark [2] stands for this setting: measured here: control luc red channel.
Where [3] appears, read: measured here: control luc red channel unless noted.

As for `Oc1ccc(Nc2nc(N3CCCC3)c3ccccc3n2)cc1`, the concentration at half-maximal activity (AC50) by setting is: under setting [1], 39.8 µM [falling, single point]; under setting [2], 15.8 µM [falling, partial curve].

Consider `Cc1cccc(CSc2cn(CC(=O)N3CCCCC3)c3ccccc23)c1`, for which the AC50 under setting [3] is 10 µM [falling, partial curve].

With `N/C(=N\O)c1ccc(NC(=O)c2cccs2)cc1`, the concentration at half-maximal activity (AC50) under setting [3] was 7.94 µM [falling, partial curve].

For `Clc1ccc(Cn2ncc3c(N4CCOCC4)ncnc32)cc1`, the AC50 under setting [3] was 20 µM [falling, partial curve].

`Cn1c(=O)n(C)c2cc(NS(=O)(=O)c3ccc(Br)cc3)c(NCc3ccccc3)cc21`: the concentration at half-maximal activity (AC50) under setting [3] was 31.6 µM [falling, partial curve].

Take `CCN(CC)CCCNC(=O)c1c(C)oc2ncn(CC(C)C)c(=O)c12`: the AC50 under setting [3] is 39.8 µM [falling, single point].

As to `CC1CCc2c(sc(NC(=O)CCCOc3ccc(C(C)(C)C)cc3)c2C(N)=O)C1` (stereo unspecified), the AC50 under setting [3] was 12.6 µM [falling, partial curve].

Take `C=CCOc1ccc2c(c1)c(S(=O)(=O)c1ccc(C)cc1)cn2COC`: under setting [3], the half-maximal activity concentration (AC50) was 31.6 µM [falling, single point].

On to `COc1cc(Br)c(C2CC(=O)Nc3cc(OC)c(OC)c(OC)c32)cc1OC` (stereo unspecified), for which the AC50 under setting [3] is 20 µM [falling, partial curve, poor fit].

As for `O=c1c2ccccc2nnn1CSc1nnc(-c2cccs2)n1Cc1ccccc1`, the AC50 under setting [3] was 39.8 µM [falling, single point].

In the case of `Cc1oc(-c2cccc(Br)c2)nc1CN1CCC(C(=O)NCCc2ccc(Cl)cc2)CC1`, the half-maximal activity concentration (AC50) under setting [3] was 15.8 µM [falling, single point].

On to `CCOC(=O)c1ccc(N2C(=O)c3n[nH]c(-c4cccs4)c3C2c2cccc(F)c2)cc1` (stereo unspecified), for which the AC50 under setting [3] is 20 µM [falling, partial curve].

Regarding `O=C(Cn1c(=O)n(Cc2nc(-c3ccccc3)no2)c(=O)c2cc3c(cc21)OCO3)Nc1ccc(Cl)cc1`, the AC50 under setting [3] was 6.31 µM [falling, full curve].

As for `Cc1ccc(C)c(N2CCN(c3ccc(NC(=O)c4cccs4)cc3C(=O)O)CC2)c1`, the AC50 under setting [3] is 0.01 µM [rising, full curve].

`Cc1nc(N2CCN(Cc3ccc4c(c3)OCO4)CC2)c2oc3ccccc3c2n1`: under setting [3], the concentration at half-maximal activity (AC50) was 15.8 µM [falling, partial curve].

Turning to `Cc1cc(C)cc(NS(=O)(=O)c2ccc3c(c2)NC(=O)C(C)S3)c1` (stereo unspecified), under setting [3], the half-maximal activity concentration (AC50) is 10 µM [falling, partial curve].

On to `CCn1c(C(=O)N2CCC(C(=O)NCCc3ccc(OC)cc3OC)CC2)cc2sccc21`, for which the AC50 under setting [3] was 25.1 µM [falling, single point].

Regarding `CCOC(=O)c1c(C)oc2nc(C)nc(Nc3ccc(CC)cc3)c12`, under setting [3], the AC50 is 0.501 µM [rising, full curve, poor fit].

On to `COc1cccc2c1Oc1ncccc1N(C(=O)Nc1ccc(F)c(Cl)c1)C2`, for which, under setting [3], the AC50 is 0.316 µM [rising, partial curve].

For `Cc1ccc(C)c(CN2C(=O)c3ccccc3S(=O)c3ccc(C(=O)NCc4ccccc4)cc32)c1` (stereo unspecified), the AC50 under setting [3] is 5.01 µM [falling, partial curve].

On to `COc1ccccc1Cc1nc2ccccc2[nH]c1=O`, for which the AC50 under setting [3] was 3.16 µM [rising, partial curve, poor fit].

As to `O=C(CSc1ncc(-c2ccc(F)cc2)n1Cc1ccco1)Nc1ccc2c(c1)OCO2`, the concentration at half-maximal activity (AC50) under setting [1] was 39.8 µM [falling, single point] and the AC50 under setting [2] is 0.126 µM [falling, full curve].

For the compound `CN(C)S(=O)(=O)c1ccc(C(=O)N2CC(=O)Nc3ccc(Br)cc3C2c2ccc(F)cc2)cc1` (stereo unspecified), under setting [3], the AC50 was 12.6 µM [falling, partial curve].

With `CCOc1cc(CNc2ccc(O)cc2)ccc1OCc1ccc(Cl)cc1`, under setting [3], the AC50 was 20 µM [falling, partial curve].

Regarding `CCOc1ccc(CC(=O)NCCc2sc3nc(-c4ccc(OC)cc4)nn3c2C)cc1`, the half-maximal activity concentration (AC50) under setting [3] was 15.8 µM [falling, partial curve].

As to `CCN1CCN(c2c(S(=O)(=O)c3ccc(C)c(C)c3)cnc3cc(OC)c(OC)cc23)CC1`, the AC50 under setting [3] is 39.8 µM [falling, single point].

As for `CCN(CC)S(=O)(=O)c1nnc(NC(=O)COc2ccc(Cl)cc2)s1`, under setting [3], the AC50 was 31.6 µM [falling, single point].

For `Cc1ccc(C)c(N2C(=O)N(Cc3cc(=O)n4ccccc4n3)c3ccccc3S2(=O)=O)c1`, the half-maximal activity concentration (AC50) under setting [3] is 10 µM [falling, partial curve].

Take `CCc1cccc(NC(=O)Nc2csc3c2CCCC3)c1`: under setting [3], the AC50 was 31.6 µM [rising, partial curve, poor fit].

For `CCn1c(SCC(=O)Nc2nccs2)nnc1-c1ccc(S(=O)(=O)N2CCCCC2)cc1`, the AC50 under setting [3] was 25.1 µM [falling, partial curve].

Regarding `Cc1ccc(CNC(=O)c2ccc3c(c2)nc(C)n3-c2cc(C)cc(C)c2)cc1`, the AC50 under setting [3] is 39.8 µM [falling, single point].

In the case of `COc1ccc(-n2nnnc2SCC(=O)c2ccc(O)c(O)c2)cc1`, the AC50 under setting [3] was 15.8 µM [falling, partial curve].

In the case of `COc1cc(C)ccc1OCCSc1nc2ccc(NC(=O)c3ccc(F)cc3)cc2s1`, the AC50 under setting [3] is 15.8 µM [falling, partial curve].

Consider `CCCCOc1ccc(C(=O)Nc2ccc(-c3nc4ccccc4s3)cc2C)cc1`, for which the AC50 under setting [3] was 2.51 µM [rising, full curve].

Consider `COc1cc(OC)cc(C(=O)Nc2ccc3nc(N4CCCCC4)cc(C)c3c2)c1`, for which the half-maximal activity concentration (AC50) under setting [3] was 7.94 µM [falling, full curve].

`COc1ccc(Cl)cc1NC(=O)CN(C(=O)c1ccco1)C1CCCCC1`: the AC50 under setting [3] was 15.8 µM [falling, partial curve].

As for `CC(C)Cn1c(=O)c2ccccc2n2c(CCC(=O)N3CCN(c4ccccc4F)CC3)nnc12`, the concentration at half-maximal activity (AC50) under setting [3] was 25.1 µM [falling, partial curve].

For `Cc1ccc2nc(-c3ccc(O)cc3)c(Nc3ccc4c(c3)OCCO4)n2c1`, the half-maximal activity concentration (AC50) under setting [3] was 10 µM [falling, partial curve].

As for `O=C(NCc1ccccc1Cl)C(=O)NCC(c1cccs1)S(=O)(=O)c1cccs1` (stereo unspecified), the half-maximal activity concentration (AC50) under setting [3] was 15.8 µM [falling, partial curve].
